Experimental data reported in PMC10043390, “Novel 2-substituted-5-(4-chloro-2-phenoxy)phenyl-1,3,4-oxadiazole derivatives, ligands of GABAA/benzodiazepine receptor complex: Design, synthesis, radioligand binding assay, and pharmacological evaluation” (EXCLI Journal, 2023).
Where “and” joins values, the source holds several entries; their conditions need not be identical. Identical values can stand only once.

Columns and labels:
[1] = tested on: male NMRI albino mice
[2] = tested on: male NMRI albino mice; experiment: Maximal electroshock (MES) test; format: in vivo; details: Mus musculus, ip; i.p. 30 min before MES (60 Hz, 37.2 mA, 0.25 s), HLTE; mean with 95% confidence intervals
Experimental: (§1) To assess the anticonvulsant activity of the novel compound 6a, we used PTZ-induced convulsion and MES tests (Guerrini et al., 2008[10]; Lankau et al., 2007[13]). In both models, the ability of the novel compound to protect mice against induced seizures was evaluated. Animals were closely observed for 30 minutes after injection of the lethal dose of PTZ (100 mg/kg) and the number of dead mice after convulsion was reported. In the MES test, each subject was observed closely and the incidence of hind limb tonic extension (HLTE) in the subjects after application of MES (60 Hz, 37.2 mA, and 0.25 s) was reported.
(§2) Kd and Bmax in radioligand binding assay were calculated by non-linear regression analysis of the saturation and competitive curve data (Program Prism, Graph Pad, San Diego, CA). The IC50s of the novel compounds in binding studies were determined using […]. […] In PTZ and MES tests, the data were presented as a mean with 95% confidence intervals. In the rest of the pharmacological evaluations, one-way ANOVA with Tukey's HSD post-hoc test was used. All the data were presented as mean ± SEM and P<0.05 was considered statistically significant.

[3] = target: benzodiazepine receptor of rat brains; experiment: Radioligand receptor binding assay ([3H]-flumazenil competitive binding); details: for Specific binding of [3H]flumazenil: mean ± SEM, n=3
Experimental: All of the binding assays were performed in triplicates in a total volume of 500 µL at 30 °C for 35 min (Ahmadi et al., 2013[1]).
as §2

[4] = tested on: male NMRI albino mice; experiment: PTZ-induced lethal convulsion test; format: in vivo; details: Mus musculus; i.p. 30 min before PTZ 100 mg/kg; mean with 95% confidence intervals
Experimental: as §1, §2

[5] = tested on: male NMRI albino mice; experiment: Pentobarbital-induced sleep test; format: in vivo
From the text: The duration of the loss of the righting reflex was considered as the sleeping time. […] For prevention of hypothermia during the experiment, animals were placed on an electric blanket (Khoramjouy et al., 2021[11]).

## CN1C(=O)CN=C(c2ccccc2)c2cc(Cl)ccc21 [Diazepam, diazepam, reference compound]
[1]; 1 mg/kg i.p., testing day, raw data of single animals
  latency of entrance to the dark compartment: 262 s and 260 s and 299 s and 240 s and 320 s and 200 s and 206 s and 333 s
[1]; 1 mg/kg, compared to vehicle, P<0.001
  effect on latency to enter the dark compartment: significantly decreased the latency
[2]
  ED50: 0.74 mg/kg
[3]; [3H]-flumazenil competitive binding
  Ki: 1.53 nM
[3]; log[L] -7.0
  Specific binding of [3H]flumazenil: 0.1733±0.0120 cpm
[3]; log[L] -8.0
  Specific binding of [3H]flumazenil: 0.2633±0.0133 cpm
[3]; log[L] -8.5
  Specific binding of [3H]flumazenil: 0.3533±0.0033 cpm
[3]; log[L] -9.0
  Specific binding of [3H]flumazenil: 0.4467±0.0033 cpm
[3]; log[L] -9.5
  Specific binding of [3H]flumazenil: 0.4967±0.0033 cpm
[3]; log[L] -10.0
  Specific binding of [3H]flumazenil: 0.5467±0.0234 cpm
[3]; log[L] -11.0
  Specific binding of [3H]flumazenil: 0.5833±0.0088 cpm
[3]; reduction of specific binding of [3H]-flumazenil by 50 %, triplicates, 30 °C, 35 min
  IC50: 2.5 ± 0.07 nM
[4]
  ED50: 0.74 mg/kg
[5]; 2 mg/kg i.p., pentobarbital 40 mg/kg i.p., raw data of single animals
  Sleeping time: 45 min and 40 min and 41 min and 54 min and 59 min and 46 min and 58 min and 48 min
[5]; 2 mg/kg, P<0.001
  effect on sleeping time: increased the sleeping time
